According to PMC4059965:
Results are given in words; binding and its absence hold for the method and conditions named. In cells and extracts the contact can be indirect. Some results given as binding are weak or reduced against the parent protein; the word gives no strength. For some assays here: Sequences can lack the tags named with a protein.

Protein sequences, listed by entry. Tags and fused reporters are not part of them. Lines headed by an entry give the natural chain unless they say otherwise; changes in a name come on top. Residues count along the entry.
UniProt P46940: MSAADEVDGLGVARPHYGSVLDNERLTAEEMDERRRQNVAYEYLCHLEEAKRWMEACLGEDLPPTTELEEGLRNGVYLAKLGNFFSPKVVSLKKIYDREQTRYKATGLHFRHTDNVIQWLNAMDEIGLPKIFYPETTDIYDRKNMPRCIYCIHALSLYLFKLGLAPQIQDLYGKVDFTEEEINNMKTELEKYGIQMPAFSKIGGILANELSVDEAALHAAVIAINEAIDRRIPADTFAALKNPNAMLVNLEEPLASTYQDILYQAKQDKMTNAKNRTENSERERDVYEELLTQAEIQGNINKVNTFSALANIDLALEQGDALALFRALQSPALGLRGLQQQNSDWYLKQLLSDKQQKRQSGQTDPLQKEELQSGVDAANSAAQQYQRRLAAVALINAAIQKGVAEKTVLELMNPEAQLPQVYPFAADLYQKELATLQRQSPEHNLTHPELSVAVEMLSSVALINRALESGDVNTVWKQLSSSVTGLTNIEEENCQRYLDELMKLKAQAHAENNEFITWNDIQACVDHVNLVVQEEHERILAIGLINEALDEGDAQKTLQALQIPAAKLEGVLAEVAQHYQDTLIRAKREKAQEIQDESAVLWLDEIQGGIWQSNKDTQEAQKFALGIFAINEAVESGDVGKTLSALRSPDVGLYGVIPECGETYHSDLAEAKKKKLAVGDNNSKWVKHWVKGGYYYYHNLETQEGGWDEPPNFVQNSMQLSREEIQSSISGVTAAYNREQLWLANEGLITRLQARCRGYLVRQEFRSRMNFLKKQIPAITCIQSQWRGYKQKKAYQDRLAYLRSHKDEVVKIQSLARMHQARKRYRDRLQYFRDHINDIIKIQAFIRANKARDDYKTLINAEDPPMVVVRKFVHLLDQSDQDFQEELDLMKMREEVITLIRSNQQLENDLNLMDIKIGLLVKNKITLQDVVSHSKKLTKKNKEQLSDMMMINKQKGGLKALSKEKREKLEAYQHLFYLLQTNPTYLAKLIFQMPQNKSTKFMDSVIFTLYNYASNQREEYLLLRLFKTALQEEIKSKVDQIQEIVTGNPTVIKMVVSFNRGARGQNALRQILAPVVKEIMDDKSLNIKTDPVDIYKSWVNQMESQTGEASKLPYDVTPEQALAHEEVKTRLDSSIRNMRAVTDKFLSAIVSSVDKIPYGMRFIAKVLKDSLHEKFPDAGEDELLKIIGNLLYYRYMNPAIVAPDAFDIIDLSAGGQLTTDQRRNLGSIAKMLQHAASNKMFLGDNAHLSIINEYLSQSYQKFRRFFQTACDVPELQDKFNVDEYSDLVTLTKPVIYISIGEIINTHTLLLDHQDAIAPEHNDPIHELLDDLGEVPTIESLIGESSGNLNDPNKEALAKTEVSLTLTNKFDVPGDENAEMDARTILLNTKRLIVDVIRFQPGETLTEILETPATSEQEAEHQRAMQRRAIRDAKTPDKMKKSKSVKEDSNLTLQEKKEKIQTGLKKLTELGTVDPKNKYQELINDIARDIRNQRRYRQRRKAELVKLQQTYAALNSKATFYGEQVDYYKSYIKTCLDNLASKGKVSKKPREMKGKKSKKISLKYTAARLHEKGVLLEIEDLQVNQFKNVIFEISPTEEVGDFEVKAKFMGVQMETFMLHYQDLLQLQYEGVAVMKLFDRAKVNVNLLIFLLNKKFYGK
GST-IQGAP1^717–863: residues 717-863 of P46940

Columns and labels:
IQGAP1-GFP^wt = IQGAP1-GFP^wt (UniProt P46940); assay: co-IP; HEK293 cells transfected; lysates pre-cleared, primary antibody (anti-GFP or anti-c-Myc) overnight at 4 °C, protein A or G Sepharose, washed three times with lysis buffer, immunoblot
GST-IQGAP1^717–863 = GST-IQGAP1^717–863 (UniProt P46940); assay: pull-down; GST-IQGAP1^717–863 on glutathione Sepharose beads with lysates of transfected HEK293 cells, NP-40 lysis buffer, 2 h at 4 °C, immunoblot; only the target purified

| Binder | binding (IQGAP1-GFP^wt) | binding (GST-IQGAP1^717–863) |
| --- | --- | --- |
| RFP-PAK6 C-terminal mutant (domain or fragment, UniProt Q9NQU5 407-658) LDSYVKIGEGSTGIVCLAREKHSGRQVAVKMMDLRKQQRRELLFNEVVIMRDYQHFNVVEMYKSYLVGEELWVLMEFLQGGALTDIVSQVRLNEEQIATVCEAVLQALAYLHAQGVIHRDIKSDSILLTLDGRVKLSDFGFCAQISKDVPKRKSLVGTPYWMAPEVISRSLYATEVDIWSLGIMVIEMVDGEPPYFSDSPVQAMKRLRDSPPPKLKNSHKVSPVLRDFLERMLVRDPQERATAQELLDHPFL | binds |  |
| GFP-PAK6 C-terminal mutant (domain or fragment, UniProt Q9NQU5 407-658) LDSYVKIGEGSTGIVCLAREKHSGRQVAVKMMDLRKQQRRELLFNEVVIMRDYQHFNVVEMYKSYLVGEELWVLMEFLQGGALTDIVSQVRLNEEQIATVCEAVLQALAYLHAQGVIHRDIKSDSILLTLDGRVKLSDFGFCAQISKDVPKRKSLVGTPYWMAPEVISRSLYATEVDIWSLGIMVIEMVDGEPPYFSDSPVQAMKRLRDSPPPKLKNSHKVSPVLRDFLERMLVRDPQERATAQELLDHPFL |  | binds |
